Literature values as cited in patent US11576886B2, “Constructs comprising fatty acids” (POLYREM LIMITED, priority 2017, dated 2023).
At least one compound was matched to its structure with a doubt left.

Tested on: β-catenin
Settings: rats treated with mood stabilisers

## [Li] [lithium]
  levels of β-catenin: increased levels of β-catenin

## CCCC(CCC)C(=O)O [valproate]
  levels of β-catenin: increased levels of β-catenin
